From article PMC5590128
No constants are given. Whether binding was seen depends on the method and setting. In cells and extracts the contact can be indirect. Some results given as binding are weak or reduced against the parent protein; the word gives no strength. Values belong to the substance of their own block, whether it stands above or below them.

By UniProt entry, the sequences of proteins in these tests, tags left out.
UniProt P46527: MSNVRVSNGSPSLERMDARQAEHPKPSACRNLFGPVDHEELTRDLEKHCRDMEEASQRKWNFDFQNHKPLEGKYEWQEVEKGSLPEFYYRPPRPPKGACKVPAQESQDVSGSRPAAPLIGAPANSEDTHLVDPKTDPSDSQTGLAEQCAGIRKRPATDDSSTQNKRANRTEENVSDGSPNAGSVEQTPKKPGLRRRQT
UniProt P49792: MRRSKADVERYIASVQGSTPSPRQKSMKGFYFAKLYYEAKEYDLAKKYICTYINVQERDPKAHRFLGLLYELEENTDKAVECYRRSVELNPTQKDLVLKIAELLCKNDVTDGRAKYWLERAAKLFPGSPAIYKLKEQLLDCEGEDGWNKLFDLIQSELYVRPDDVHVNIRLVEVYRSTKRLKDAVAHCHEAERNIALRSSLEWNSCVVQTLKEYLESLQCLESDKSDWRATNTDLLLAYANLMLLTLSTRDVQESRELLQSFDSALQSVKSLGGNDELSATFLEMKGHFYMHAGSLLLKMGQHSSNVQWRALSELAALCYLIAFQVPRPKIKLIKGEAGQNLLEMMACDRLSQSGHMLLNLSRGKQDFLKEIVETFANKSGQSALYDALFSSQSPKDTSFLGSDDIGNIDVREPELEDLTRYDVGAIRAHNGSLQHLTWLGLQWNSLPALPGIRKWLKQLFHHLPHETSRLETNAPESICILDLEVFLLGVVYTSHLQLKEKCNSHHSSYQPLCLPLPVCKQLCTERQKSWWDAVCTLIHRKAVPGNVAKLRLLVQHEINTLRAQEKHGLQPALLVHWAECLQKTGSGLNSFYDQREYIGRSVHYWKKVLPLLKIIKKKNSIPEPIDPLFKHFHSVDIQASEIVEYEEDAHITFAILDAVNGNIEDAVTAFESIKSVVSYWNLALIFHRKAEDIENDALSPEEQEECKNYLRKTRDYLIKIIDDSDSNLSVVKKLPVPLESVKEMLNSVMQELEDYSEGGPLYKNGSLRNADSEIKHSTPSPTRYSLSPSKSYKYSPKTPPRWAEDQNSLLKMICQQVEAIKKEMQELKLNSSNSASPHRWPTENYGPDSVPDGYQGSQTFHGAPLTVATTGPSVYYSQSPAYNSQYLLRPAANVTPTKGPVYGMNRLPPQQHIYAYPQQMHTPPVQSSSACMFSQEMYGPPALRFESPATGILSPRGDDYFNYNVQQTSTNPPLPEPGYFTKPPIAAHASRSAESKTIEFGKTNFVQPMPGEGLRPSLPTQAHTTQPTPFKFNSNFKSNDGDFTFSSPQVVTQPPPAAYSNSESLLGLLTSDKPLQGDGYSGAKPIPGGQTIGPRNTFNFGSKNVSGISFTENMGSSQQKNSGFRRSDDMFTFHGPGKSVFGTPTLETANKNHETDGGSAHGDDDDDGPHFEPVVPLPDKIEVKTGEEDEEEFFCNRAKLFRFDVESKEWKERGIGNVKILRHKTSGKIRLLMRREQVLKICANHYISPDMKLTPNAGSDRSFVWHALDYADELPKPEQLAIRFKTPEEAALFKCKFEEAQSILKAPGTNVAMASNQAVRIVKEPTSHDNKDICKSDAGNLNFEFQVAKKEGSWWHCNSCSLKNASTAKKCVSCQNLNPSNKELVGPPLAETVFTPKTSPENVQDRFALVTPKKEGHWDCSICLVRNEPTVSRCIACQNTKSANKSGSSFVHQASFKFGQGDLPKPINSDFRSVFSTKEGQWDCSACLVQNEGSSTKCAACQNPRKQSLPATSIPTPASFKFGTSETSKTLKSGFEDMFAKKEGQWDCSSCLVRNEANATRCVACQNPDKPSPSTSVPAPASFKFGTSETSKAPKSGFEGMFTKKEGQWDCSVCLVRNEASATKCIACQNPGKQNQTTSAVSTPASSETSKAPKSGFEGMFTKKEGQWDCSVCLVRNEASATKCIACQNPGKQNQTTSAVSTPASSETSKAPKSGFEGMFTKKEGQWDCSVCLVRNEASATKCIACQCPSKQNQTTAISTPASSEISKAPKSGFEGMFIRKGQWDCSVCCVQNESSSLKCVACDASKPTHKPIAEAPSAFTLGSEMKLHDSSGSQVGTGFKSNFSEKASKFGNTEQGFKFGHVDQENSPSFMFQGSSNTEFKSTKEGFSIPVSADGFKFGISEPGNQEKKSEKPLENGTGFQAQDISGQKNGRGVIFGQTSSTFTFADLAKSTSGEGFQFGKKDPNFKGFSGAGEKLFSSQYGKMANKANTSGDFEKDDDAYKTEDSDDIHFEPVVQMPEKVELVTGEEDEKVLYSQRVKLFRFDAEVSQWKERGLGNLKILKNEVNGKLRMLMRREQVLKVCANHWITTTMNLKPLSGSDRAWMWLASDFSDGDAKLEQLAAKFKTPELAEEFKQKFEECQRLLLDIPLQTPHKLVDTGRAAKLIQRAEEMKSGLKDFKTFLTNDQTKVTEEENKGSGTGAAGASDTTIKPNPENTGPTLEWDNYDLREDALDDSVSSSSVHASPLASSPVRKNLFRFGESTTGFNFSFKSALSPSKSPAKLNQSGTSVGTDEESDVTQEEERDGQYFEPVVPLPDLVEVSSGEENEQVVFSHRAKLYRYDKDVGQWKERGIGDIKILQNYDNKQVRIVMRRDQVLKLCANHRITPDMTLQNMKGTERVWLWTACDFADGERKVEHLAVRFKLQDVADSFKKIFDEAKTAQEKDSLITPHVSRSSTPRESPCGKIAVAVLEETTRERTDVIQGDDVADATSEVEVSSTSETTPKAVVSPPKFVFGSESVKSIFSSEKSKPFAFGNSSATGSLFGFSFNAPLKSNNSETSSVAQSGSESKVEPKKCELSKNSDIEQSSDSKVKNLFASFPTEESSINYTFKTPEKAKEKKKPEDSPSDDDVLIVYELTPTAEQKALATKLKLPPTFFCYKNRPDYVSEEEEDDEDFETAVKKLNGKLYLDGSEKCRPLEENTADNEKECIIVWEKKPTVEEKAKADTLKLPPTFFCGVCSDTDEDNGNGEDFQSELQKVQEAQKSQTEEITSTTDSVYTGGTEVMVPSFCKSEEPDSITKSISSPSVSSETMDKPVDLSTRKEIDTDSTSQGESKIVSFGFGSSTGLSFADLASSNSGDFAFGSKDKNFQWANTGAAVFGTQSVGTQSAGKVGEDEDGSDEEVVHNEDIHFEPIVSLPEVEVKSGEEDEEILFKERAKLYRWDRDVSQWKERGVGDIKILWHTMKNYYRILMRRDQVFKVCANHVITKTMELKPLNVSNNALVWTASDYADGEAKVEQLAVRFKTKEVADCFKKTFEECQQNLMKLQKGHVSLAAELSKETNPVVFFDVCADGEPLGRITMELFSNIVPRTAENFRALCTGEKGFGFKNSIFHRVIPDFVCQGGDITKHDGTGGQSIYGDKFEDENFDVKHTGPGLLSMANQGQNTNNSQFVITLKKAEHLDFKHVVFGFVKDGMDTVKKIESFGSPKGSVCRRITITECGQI

Assays:
flag-p27kip1-wt = flag-p27kip1-wt (UniProt P46527); experiment: co-IP; QBC939 cells transfected with flag-p27kip1 and HA-RanBP2; lysed in NETN buffer; anti-HA or anti-flag antibody and Protein G Agarose overnight at 4 °C; four washes with NETN; western blotting
GST-RanBP2 = GST-RanBP2 (UniProt P49792); experiment: pull-down; GST-pull down with GST-RanBP2 and His-p27kip1, as mentioned by Sambrook (ref. 25); no further conditions given
HA-RanBP2 = HA-RanBP2 (UniProt P49792); experiment: co-IP; QBC939 cells transfected with flag-p27kip1 and HA-RanBP2; lysed in NETN buffer; anti-HA or anti-flag antibody and Protein G Agarose overnight at 4 °C; four washes with NETN; western blotting

binding (flag-p27kip1-wt): binds
Substance: HA-RanBP2 (from UniProt P49792 1-3224)

binding (GST-RanBP2): binds
Substance: His-p27kip1 (from UniProt P46527 1-198)

binding (HA-RanBP2): binds
Substance: flag-p27kip1-wt (from UniProt P46527 1-198)
